# Reference: paper PMC7819943, “Rice protein-binding microarrays: a tool to detect cis-acting elements near promoter regions in rice”
# By UniProt entry, the sequences of proteins in these tests, tags left out.
# UniProt Q0JBA9, entry or part of it: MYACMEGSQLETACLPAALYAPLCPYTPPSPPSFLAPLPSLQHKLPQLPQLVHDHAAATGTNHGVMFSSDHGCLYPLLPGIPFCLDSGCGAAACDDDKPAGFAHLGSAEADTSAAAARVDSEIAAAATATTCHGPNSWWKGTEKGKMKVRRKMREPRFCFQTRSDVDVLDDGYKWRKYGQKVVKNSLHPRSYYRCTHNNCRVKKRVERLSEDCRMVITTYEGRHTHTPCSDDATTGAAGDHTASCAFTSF
# The list shows a part of the results.
# Biological target: OsWRKY34 (Oryza sativa, UniProt Q0JBA9 1-250)
# Assay: protein-binding microarray (RPBM); PBS, 2% BSA, 51.3 ng/ul salmon testes DNA, 50 uM zinc acetate, 200 nM TF, 25 C, 1 h; high values mean tight binding
# Details: protein: recombinant; tags: N-terminal polyhistidine and DsRed monomer fusion (pET32a); label: CyDye5-dUTP incorporated in the synthesized complementary strand; 3' TTTTT single-stranded linker to array surface; dsDNA, one strand shown
# Summary of the method: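 Transcription factors were each fused at the N-terminus to a polyhistidine tag plus DsRed and expressed in E. coli BL21-CodonPlus before Ni–NTA purification. Binding to a double-stranded custom Agilent array was carried out with 200 nM protein at 25 °C for 1 h in PBS, 2% BSA, salmon testes DNA and 50 µM zinc acetate. The binding signal is per-feature fluorescence intensity, in arbitrary units, on an Axon 4000B scanner.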
row,Sequence,binding signal
1,TCCCGCGCTTCGCCGGCGAACTCTTCGTCCAGTTCATCATCGGAGTCACCTAGTGCAG,10500 fluorescence intensity (a.u.)
2,GTCTCTCTTGTCCTCCGTTGGATGTCTCCCTGAGGGATCGCGGAGTCACCTAGTGCAG,8820 fluorescence intensity (a.u.)
3,CACCCGTATGAACACGCTTGGACACCCTTATGATTACTTTCGGAGTCACCTAGTGCAG,8020 fluorescence intensity (a.u.)
4,CAGTTGACCGCCACGTAGAACCTGTTCCTCCAGCTCACCACGGAGTCACCTAGTGCAG,8130 fluorescence intensity (a.u.)
5,CACCCATTTTCTCCACTAAAATACGCGCCGCTTATTAAATCGGAGTCACCTAGTGCAG,8500 fluorescence intensity (a.u.)
6,TCCCTCGCCATCATCCATGTTCATCTGCACACCTGGATCCCGGAGTCACCTAGTGCAG,9670 fluorescence intensity (a.u.)
7,TCGGTATTTTCTGTTCTGATTCATGTGCTTCTTCATCTTCCGGAGTCACCTAGTGCAG,13300 fluorescence intensity (a.u.)
8,CGCTCATCTATTTCTTTGTAGTACAACGCAGGCGCTCACACGGAGTCACCTAGTGCAG,8090 fluorescence intensity (a.u.)
9,AGTCCTTACCTCGGCGTCGACTCGTACGTTTAAATCTAGCCGGAGTCACCTAGTGCAG,9320 fluorescence intensity (a.u.)
10,CACTAGTGCACCATCTTATATTCTTCCTACATATTCATTCCGGAGTCACCTAGTGCAG,12500 fluorescence intensity (a.u.)
11,GCGCCCTTAAAAAACACTCATCCAATTCACACCACACTTTCGGAGTCACCTAGTGCAG,9400 fluorescence intensity (a.u.)
12,ACTGGAGACGGGTTCTGCACCTGCCGCTACCAACGTCGCTCGGAGTCACCTAGTGCAG,8880 fluorescence intensity (a.u.)
13,GTCGGCTGCACTGATCGATTCCATCACTCTCTCTCTCTCGCGGAGTCACCTAGTGCAG,10300 fluorescence intensity (a.u.)
14,ATCTCATTATCTATGGGCCTTTAGTTTTCCTTTCCGATCTCGGAGTCACCTAGTGCAG,8100 fluorescence intensity (a.u.)
15,CATCGACGGATCCTCATCCTAATCCGTTCCCTTTGTCCTGCGGAGTCACCTAGTGCAG,8720 fluorescence intensity (a.u.)
16,CTCTTCGCCGCCCGCGGCGCGCCTTCCAGAACCTTCCAGACGGAGTCACCTAGTGCAG,8930 fluorescence intensity (a.u.)
17,CTAAAATTTGCTGCTCTCTCCAGTTCCTTCACTTCTTCAACGGAGTCACCTAGTGCAG,8190 fluorescence intensity (a.u.)
18,CTTGTTTTTTTTTACGAGGTTTAGTTCATTTCTCGTACGGCGGAGTCACCTAGTGCAG,8960 fluorescence intensity (a.u.)
19,GCCCGTCTTCGTCCAGTTCCTGATCAGGTATGGTCCTTCTCGGAGTCACCTAGTGCAG,8060 fluorescence intensity (a.u.)
20,GAACCGACCTTCATGAACCGACGTCCACCGCCTATAAATACGGAGTCACCTAGTGCAG,11000 fluorescence intensity (a.u.)
21,TTCTCTTTTTCCTTTTCTCCCATCGAAACCTTTTTTTTTTCGGAGTCACCTAGTGCAG,9060 fluorescence intensity (a.u.)

# Reformatted: entries from further up
row | Sequence | binding signal
5 | CACCCATTTTCTCCACTAAAATACGCGCCGCTTATTAAATCGGAGTCACCTAGTGCAG | 8500 fluorescence intensity (a.u.)
12 | ACTGGAGACGGGTTCTGCACCTGCCGCTACCAACGTCGCTCGGAGTCACCTAGTGCAG | 8880 fluorescence intensity (a.u.)
14 | ATCTCATTATCTATGGGCCTTTAGTTTTCCTTTCCGATCTCGGAGTCACCTAGTGCAG | 8100 fluorescence intensity (a.u.)
17 | CTAAAATTTGCTGCTCTCTCCAGTTCCTTCACTTCTTCAACGGAGTCACCTAGTGCAG | 8190 fluorescence intensity (a.u.)

# The results go on.

row,Sequence,binding signal
1,AATATTTCCCTTTCCAATGTTCAGTCAGCCCATCAGACCGCGGAGTCACCTAGTGCAG,8110 fluorescence intensity (a.u.)
2,CTATATATTTACCCACTGTATACCTCTGTCATGAAAGCATCGGAGTCACCTAGTGCAG,11500 fluorescence intensity (a.u.)
3,TTGTTCATGATTCCCACCAATCGATTAATTTTTCGTCCGGCGGAGTCACCTAGTGCAG,9950 fluorescence intensity (a.u.)
4,GCTATTTGTGCAAAAGCTTTTCTCTTCTTTCTTAGTACAACGGAGTCACCTAGTGCAG,9970 fluorescence intensity (a.u.)
5,TCTCGCCACCTTCGCCTCCATCTCATCGACCGCCCACTTCCGGAGTCACCTAGTGCAG,12800 fluorescence intensity (a.u.)
6,ACGTCACCAAGTACGCGTCACTCCTCGCCGCCGGCAACTCCGGAGTCACCTAGTGCAG,8700 fluorescence intensity (a.u.)
7,TTGTTTTATCACTCATAGTCTTTTAAGTGTGGTTTATATCCGGAGTCACCTAGTGCAG,8670 fluorescence intensity (a.u.)
8,ACACGGGCCCCGGACTCCTTCTGCAGCAAGTTACAAGCCACGGAGTCACCTAGTGCAG,8150 fluorescence intensity (a.u.)
9,AGAAGTTGATTTGGGGTTGCGCTATATCTATTAAAGAGTACGGAGTCACCTAGTGCAG,9180 fluorescence intensity (a.u.)
10,TCTGCAGCTTCCATCCGTCGCCGTAGTCGGCGAGCGGCGCCGGAGTCACCTAGTGCAG,8090 fluorescence intensity (a.u.)
11,GGACTTAAAAGTTTTAGTCCCATCTGAACAGCGTCTTAATCGGAGTCACCTAGTGCAG,8330 fluorescence intensity (a.u.)
12,GTCGCCGCACACGCCACAGTCGTCGTTGCACACACGCGCCCGGAGTCACCTAGTGCAG,8250 fluorescence intensity (a.u.)
13,AGGTCTTCACTATGCACCTGCACATTGTAGCTCGATTACCCGGAGTCACCTAGTGCAG,8420 fluorescence intensity (a.u.)
14,CGTCCCGTTCACACCACCACCGTCTCGTCGCCTCGTCGGCCGGAGTCACCTAGTGCAG,9900 fluorescence intensity (a.u.)
15,GCCACAATAAAATATTATCCACATATGGCAGTGTTCGTTTCGGAGTCACCTAGTGCAG,8250 fluorescence intensity (a.u.)
16,GATGTGAATCACCCTTTGCTTTGCTGAATCTACTCCTACACGGAGTCACCTAGTGCAG,10600 fluorescence intensity (a.u.)
17,TTGCTTGTCTGTTTGTTTTATTTATTTATGACGTCATTATCGGAGTCACCTAGTGCAG,12600 fluorescence intensity (a.u.)
18,CGGTTTTCTTAGTGACCAACTTGCCCTTTTGCCTTATCCCCGGAGTCACCTAGTGCAG,8420 fluorescence intensity (a.u.)
19,GCGGACAAGTCCTTGATTCAGTCCACTCGTCTTGATTATTCGGAGTCACCTAGTGCAG,8780 fluorescence intensity (a.u.)
20,ATATGGCATTGTTTCTGTGTTATTCAGGCGCACCTTTAAACGGAGTCACCTAGTGCAG,10100 fluorescence intensity (a.u.)
21,GCTAAGGTAAGCTCCATCTGCTTCTGATACACACACTCACCGGAGTCACCTAGTGCAG,8590 fluorescence intensity (a.u.)
